This is an account of results in PMC11402128, “The stability of FKBP9 maintained by BiP is crucial for glioma progression” (Genes & Diseases, 2023).

The chains behind the UniProt entries cited, without tags or fusion partners. Residues count along the entry.
UniProt P11021, residues 19-654: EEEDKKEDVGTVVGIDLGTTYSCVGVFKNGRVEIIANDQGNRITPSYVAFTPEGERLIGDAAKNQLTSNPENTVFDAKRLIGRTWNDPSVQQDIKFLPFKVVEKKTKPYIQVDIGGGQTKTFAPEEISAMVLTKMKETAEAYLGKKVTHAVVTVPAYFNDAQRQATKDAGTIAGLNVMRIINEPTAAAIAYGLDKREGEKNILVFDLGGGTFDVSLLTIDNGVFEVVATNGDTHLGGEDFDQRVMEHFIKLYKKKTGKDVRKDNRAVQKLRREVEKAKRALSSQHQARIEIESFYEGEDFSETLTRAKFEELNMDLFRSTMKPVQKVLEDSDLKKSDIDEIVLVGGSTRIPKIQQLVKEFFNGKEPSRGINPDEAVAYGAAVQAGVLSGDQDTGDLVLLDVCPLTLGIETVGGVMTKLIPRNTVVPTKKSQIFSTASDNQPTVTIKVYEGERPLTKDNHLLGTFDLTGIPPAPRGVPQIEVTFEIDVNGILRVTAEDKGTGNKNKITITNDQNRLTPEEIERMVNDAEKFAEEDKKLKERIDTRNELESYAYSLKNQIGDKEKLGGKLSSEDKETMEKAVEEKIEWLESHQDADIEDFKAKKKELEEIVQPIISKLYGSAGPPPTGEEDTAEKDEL

These are yes or no findings as the source states them, for the method shown. Binding seen in cells or lysates may run through a third protein. These calls come from enrichment with a bait or labelling near it, and not all partners need be listed. For some assays here: Sequences can lack the tags named with a protein.

The target of assay [1] is T1, Flag-HA-labeled FKBP9 (FKBP9-HA) (human) (UniProt O95302).
T1 sequence: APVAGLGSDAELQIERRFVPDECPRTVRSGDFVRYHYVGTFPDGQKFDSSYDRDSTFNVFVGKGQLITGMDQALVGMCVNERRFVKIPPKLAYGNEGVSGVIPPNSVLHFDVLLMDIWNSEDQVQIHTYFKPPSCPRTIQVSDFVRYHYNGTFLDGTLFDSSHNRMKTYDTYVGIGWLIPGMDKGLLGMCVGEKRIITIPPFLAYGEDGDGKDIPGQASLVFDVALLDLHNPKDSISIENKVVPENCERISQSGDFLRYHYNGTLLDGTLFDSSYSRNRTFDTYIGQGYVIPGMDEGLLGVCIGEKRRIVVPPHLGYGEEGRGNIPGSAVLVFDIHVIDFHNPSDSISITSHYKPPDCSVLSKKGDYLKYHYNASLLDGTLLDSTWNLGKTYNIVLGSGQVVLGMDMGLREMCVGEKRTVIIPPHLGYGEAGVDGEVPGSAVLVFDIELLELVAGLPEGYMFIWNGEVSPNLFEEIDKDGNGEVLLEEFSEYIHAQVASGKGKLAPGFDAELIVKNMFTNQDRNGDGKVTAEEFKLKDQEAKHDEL
Nature of the assay: affinity purification with mass spectrometry; HA antibody co-immunoprecipitation from lysate of T98G cells infected with FKBP9-HA or EGFP-HA lentivirus; SDS-PAGE, silver staining, framed gel bands identified by LC-MS/MS; buffer 50 mM Tris-HCl pH 7.4, 150 mM NaCl, 3 mM EDTA, 0.5% Triton X-100.

For assay [2], the target named is Flag-HA-labeled BiP (BiP-HA) (human) (UniProt P11021). Briefly: affinity purification with mass spectrometry; HA antibody co-immunoprecipitation from lysate of T98G cells expressing BiP-HA or EGFP-HA; the elution identified by LC-MS/MS.

As to “binding immunoglobulin protein (BiP), endogenous (from UniProt P11021 19-654)”, the binding entry in assay [1] is “binds”.

B1: human recombinant protein FKBP9 (TP322307, Origene) (natural protein, UniProt O95302 25-570, looked up)
chain: APVAGLGSDAELQIERRFVPDECPRTVRSGDFVRYHYVGTFPDGQKFDSSYDRDSTFNVFVGKGQLITGMDQALVGMCVNERRFVKIPPKLAYGNEGVSGVIPPNSVLHFDVLLMDIWNSEDQVQIHTYFKPPSCPRTIQVSDFVRYHYNGTFLDGTLFDSSHNRMKTYDTYVGIGWLIPGMDKGLLGMCVGEKRIITIPPFLAYGEDGDGKDIPGQASLVFDVALLDLHNPKDSISIENKVVPENCERISQSGDFLRYHYNGTLLDGTLFDSSYSRNRTFDTYIGQGYVIPGMDEGLLGVCIGEKRRIVVPPHLGYGEEGRGNIPGSAVLVFDIHVIDFHNPSDSISITSHYKPPDCSVLSKKGDYLKYHYNASLLDGTLLDSTWNLGKTYNIVLGSGQVVLGMDMGLREMCVGEKRTVIIPPHLGYGEAGVDGEVPGSAVLVFDIELLELVAGLPEGYMFIWNGEVSPNLFEEIDKDGNGEVLLEEFSEYIHAQVASGKGKLAPGFDAELIVKNMFTNQDRNGDGKVTAEEFKLKDQEAKHDEL
notes: also called purified FKBP9; source: bought: Origene (TP322307)
For B1, the binding result in assay [2] is on record as “binds”.
